From PubChem BioAssay AID504834 (National Center for Advancing Translational Sciences (NCATS), 2011)
The campaign covered roughly 320,000 compounds. About 22,000 (6.9%) were called active. Inconclusive means that the source gave no clear call. Such entries were picked first, then a sample of the others. The call rests on the fitted dose curve; in most records, active means well fitted inhibition curve with a large enough effect; inconclusive means small, poorly fitted or top-dose-only effect, or another doubt; inactive means no such curve, though single readings can be large or run the other way. A potency beside an inconclusive call is a rough fit, not a confirmed value.

test: Primary qHTS for delayed death inhibitors of the malarial parasite plastid, 96 hour incubation; settings: P. falciparum luciferase reporter growth; series mostly up to 28.7 µM; activity change, negative = inhibition: at the top concentration
Procedure, shortened: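 96 h incubation, 37 C, 5% CO2, of luciferase-reporter P. falciparum-infected RBCs (2% hematocrit, 0.05% parasitemia final) with test compounds; endpoint luminescence.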
On the % scale 0 is the no-effect control and ±100 the full control effect; potency means the concentration at half of the fitted maximal effect.

| SMILES | Potency | activity change, negative = inhibition |
| --- | --- | --- |
| CC(=O)c1ccc(NC(=O)N2C3CCC2CC(O)(c2cccnc2)C3)cc1 (configuration not stated) | inconclusive: 18.5 µM [inhibitor, single point] | – |
| CCN1C(=O)c2ccccc2Sc2ccc(C(=O)NCCN3CCOCC3)cc21 | inconclusive: 13.1 µM [inhibitor, partial curve, poor fit] | – |
| O=C(c1ccco1)N1CCN(S(=O)(=O)c2ccc3c(c2)CCN3C(=O)C2CCC2)CC1 | – | inactive: -6.17% |
| Cc1ccc(-c2c(C(=O)N/N=C/c3ccc4c(c3)OCO4)nnn2-c2nonc2N)cc1 | inconclusive: 0.928 µM [inhibitor, partial curve, poor fit] | – |
| CC(=O)Nc1nc(C)c(-c2csc(Nc3ccc(O)cc3)n2)s1 | inconclusive: 11.7 µM [inhibitor, single point] | – |
| COc1cc(N)c(Cl)cc1C(=O)OC(C)C(=O)Nc1cccc(S(=O)(=O)N2CCOCC2)c1 (configuration not stated) | inconclusive: 18.5 µM [inhibitor, single point] | – |
| Cc1[nH]cnc1CSCc1ccc(F)cc1 | inconclusive: 13.1 µM [inhibitor, partial curve, poor fit] | – |
| COc1ccccc1NC(=O)COC(=O)c1ccc(N2CCCC2=O)cc1 | – | inactive: 10.9% |
| O=C1CS/C(=N\NC(=O)c2ccccc2)N1 | inconclusive: 3.7 µM [inhibitor, partial curve] | – |
| COC(=O)C1=C(C)N(Cc2ccccc2)C(=NCCc2c[nH]c3ccccc23)N[C@H]1c1cccc(C(F)(F)F)c1 | active: 13.1 µM | – |
| O=C(Nc1ccccc1)C1(c2ccccc2)CC1(Cl)Cl (configuration not stated) | active: 1.65 µM | – |
| C=CCn1c(-c2csc3ccccc23)n[nH]c1=S | inconclusive: 11.7 µM [inhibitor, partial curve] | – |
| CCn1cc(C(=O)O)c(=O)c2cc(F)c(N3CCN(S(=O)(=O)c4ccc5c(c4)OCCO5)CC3)cc21 | inconclusive: 2.62 µM [inhibitor, single point] | – |
| CCOc1ccc(C(=O)c2cc([N+](=O)[O-])ccc2N2CCOCC2)cc1 | – | inactive: 62.1% |
| O=S(=O)(c1ccccc1)c1nc(-c2ccc(Cl)cc2)oc1NCCCN1CCOCC1 | inconclusive: 7.38 µM [inhibitor, partial curve] | – |
| COc1c(O)c(O)c2oc(-c3ccccc3)cc(=O)c2c1OC | inconclusive: 16.5 µM [inhibitor, single point] | – |
| Cc1ccccc1NC(=S)NCCc1c[nH]c2ccccc12 | inconclusive: 18.5 µM [inhibitor, single point] | – |
| Cc1ccccc1Nc1nc(N)nc(CN2C(=O)NC3(CCCCC3C)C2=O)n1 (configuration not stated) | inconclusive: 18.5 µM [inhibitor, single point] | – |
| CCNC(=O)/C(C#N)=C/c1c(N(Cc2ccccc2)Cc2ccccc2)nc2ccccn2c1=O | active: 13.1 µM | – |
| Nc1ccc(C23CC4CC(CC(C4)C2)C3)cc1 | – | inactive: 99.5% |
| COC(=O)CSc1nc2ncc(Cl)cc2[nH]1 | active: 13.1 µM | – |
| CC(C)C(=O)NC(Nc1cc(C(F)(F)F)ccc1Cl)C(Cl)(Cl)Cl (configuration not stated) | active: 13.1 µM | – |
| COc1ccc(C(C(=O)NC2CCCCC2)N(Cc2cccs2)C(=O)Cc2c[nH]c3ccccc23)cc1OC (configuration not stated) | inconclusive: 4.15 µM [inhibitor, partial curve, poor fit] | – |
| O=C(Nc1ccc(F)cc1F)c1cc(-c2ccco2)nc2ccccc12 | inconclusive: 18.5 µM [inhibitor, partial curve, poor fit] | – |

| SMILES | Potency | activity change, negative = inhibition |
| --- | --- | --- |
| CCOC(=O)c1nn(-c2ccc(Cl)cc2)c2nnc(Cc3ccccc3)c(=O)n12 | inconclusive: 18.5 µM [inhibitor, single point] | – |
| c1ccc(-c2nc(N3CCN(c4ccccc4)CC3)nc(-n3ccnc3)n2)cc1 | inconclusive: 7.38 µM [inhibitor, partial curve] | – |
| CN1/C(=C\C(=O)CSc2nnc(NCc3ccccc3)s2)C(C)(C)c2ccccc21 | active: 6.57 µM | – |
| O=C(CC1(O)C(=O)N(Cc2cccc3ccccc23)c2ccccc21)c1cccnc1 (configuration not stated) | active: 3.7 µM | – |
| Cc1ccc(S(=O)(=O)NCCSc2nnnn2-c2ccc(C(N)=O)cc2)cc1 | inconclusive: 6.57 µM [inhibitor, partial curve, poor fit] | – |
| CC1Sc2ccc(S(=O)(=O)N3CCC(C(=O)NCc4ccco4)CC3)cc2NC1=O (configuration not stated) | inconclusive: 16.5 µM [inhibitor, single point] | – |
| Cc1ccccc1Cn1ccc(=NCc2ccccc2)cc1 | active: 0.329 µM | – |
| Cc1cc(OC(F)F)ccc1NC(=O)Nc1ccc([N+](=O)[O-])cc1 | inconclusive: 9.28 µM [inhibitor, single point] | – |
| Cc1cc(C)nc(OC(=O)c2ccc(Cl)cc2Cl)n1 | – | inactive: 47.9% |
| CCCn1c2ccccc2c2cnn(CC(=O)OC)c(=O)c21 | inconclusive: 8.28 µM [inhibitor, partial curve] | – |
| OC(Cn1nnc2ccccc21)Cn1c(C(F)(F)F)nc2ccccc21 (configuration not stated) | inconclusive: 4.15 µM [inhibitor, single point] | – |
| O=C(NCCc1ccc(Cl)cc1)c1ccc2nc[nH]c2c1 | – | inactive: -0.0774% |
| O=C(Nc1ccccc1)c1ccc(S(=O)(=O)N2CCCCC2)cc1 | inconclusive: 6.57 µM [inhibitor, partial curve, poor fit] | – |
| CC1=C(C(=O)Nc2ccccc2C(=O)N2CCCCC2)SCCO1 | inconclusive: 11.7 µM [inhibitor, single point] | – |
| O=C1c2oc3ccccc3c(=O)c2C(c2ccc(O)cc2)N1c1nccs1 (configuration not stated) | – | inactive: 20.9% |
| Cn1c(SCC(=O)Nc2ccc(Br)cc2)nc(O)cc1=O | – | inactive: 12.1% |
| Cc1ccc([N+](=O)[O-])cc1NC(=O)CSc1n[nH]c(-c2cccnc2)n1 | inconclusive: 0.828 µM [inhibitor, full curve, poor fit] | – |
| COCC(C)N=C1NN=C(c2cc(C)n(Cc3ccccc3Cl)c2C)CS1 (configuration not stated) | – | inactive: -26.1% |
| CCCN1C(=O)/C(=C/c2ccc3c(c2)OCO3)NC1=S | active: 9.28 µM | – |
| CCOC(=O)c1cnc(-n2[nH]c(C)c(Cc3ccccc3)c2=O)[nH]c1=O | inconclusive: 8.28 µM [inhibitor, partial curve, poor fit] | – |
| CCCCCCCC/C=C\CCCCCCCCN | – | inactive: -1.49% |
| Cc1cc(C)c(C(=O)CN2C(=O)NC3(CCC(C)CC3)C2=O)cc1C (configuration not stated) | – | inactive: 26.5% |
| CCC(=O)NCCc1nc2cc(NC(=O)c3ccc(F)cc3)ccc2n1C | – | inactive: 204% |
| N#Cc1ccc(NC(=O)COC(=O)C2Cc3ccccc3CN2C(=O)c2ccccc2)cc1 (configuration not stated) | – | inactive: -7.76% |

| SMILES | Potency | activity change, negative = inhibition |
| --- | --- | --- |
| Cc1ccc(C(C)C)c(OCC(=O)NN=C2CCCCCCC2)c1 | inconclusive: 18.5 µM [inhibitor, single point] | – |
| CNCCc1c(C)n[nH]c1C | active: 11.7 µM | – |
| COc1ccc(NC(=O)c2cc(S(=O)(=O)N(Cc3ccccc3)c3ccccc3)ccc2Cl)cn1 | inconclusive: 11.7 µM [inhibitor, single point] | – |
| CCCC(=O)Nc1cccc(-c2cn3cccnc3n2)c1 | inconclusive: 7.38 µM [inhibitor, partial curve, poor fit] | – |
| CC12CN3CCN(CC(C3)C1O)C2 (configuration not stated) | inconclusive: 11.7 µM [inhibitor, partial curve, poor fit] | – |
| Cn1nc(C(=O)NCc2ccc(F)cc2)cc1C(=O)NCc1ccc(F)cc1 | inconclusive: 18.5 µM [inhibitor, single point] | – |
| CCCCN1C(=O)CC(Sc2ccccc2C(=O)O)C1=O (configuration not stated) | – | inactive: -20.4% |
| Cc1nc2c3ccccc3nc(NNC(=O)CCC(=O)NC(C)C)n2n1 | active: 6.57 µM | – |
| COC(=O)c1cc(S(=O)(=O)N2CCCC(C)C2)c[nH]1 (configuration not stated) | inconclusive: 18.5 µM [inhibitor, single point] | – |
| CCOC(=O)Nc1ccc(S(=O)(=O)Nc2cc(C)nc(C)n2)cc1 | – | inactive: -11.7% |
| CC(C)(C)NS(=O)(=O)c1ccc(NC(=O)NC2CCCCC2)cc1 | inconclusive: 2.33 µM [inhibitor, partial curve, poor fit] | – |
| Cc1csc2ncnc(NC3CCN(Cc4ccccc4)CC3)c12 | inconclusive: 10.4 µM [inhibitor, single point] | – |
| O=C(COC(=O)C(Cc1ccccc1)NC(=O)c1ccc(Cl)cc1)c1ccc(Cl)cc1 (configuration not stated) | – | inactive: 0.046% |
| CCCCC(=O)Nc1cc(OCC)c(NC(=S)NC)cc1OCC | – | inactive: -23% |
| Fc1ccccc1COc1ccccc1CNCc1ccncc1 | inconclusive: 16.5 µM [inhibitor, single point] | – |
| O=C(COC(=O)c1cccs1)Nc1ccccc1Cl | – | inactive: 10.8% |
| Fc1ccccc1Cn1nnc2c(NCCc3ccccn3)ncnc21 | inconclusive: 10.4 µM [inhibitor, single point] | – |
| O=C(C1CCN(c2nnc(N3CCCC3=O)s2)CC1)N1CCN(c2cccc(C(F)(F)F)c2)CC1 | – | inactive: -9.15% |
| COc1ccc(C2=NN(C(=O)CCC(=O)O)C(c3ccccc3OC)C2)cc1 (configuration not stated) | inconclusive: 10.4 µM [inhibitor, single point] | – |
| CCOC(=O)C1=C(C)N(C)C(C)=C(C(=O)OCC)C1c1ccncc1 | – | inactive: 16.6% |
| Cc1ccc2c(c1)N(CC(=O)NCCCN1CCCCC1)C(=O)CO2 | inconclusive: 2.62 µM [inhibitor, partial curve, poor fit] | – |
| O=C(NC1(C(F)(F)F)NC(=O)N(C2CCCCC2)C1=O)C1CC1 (configuration not stated) | inconclusive: 18.5 µM [inhibitor, single point] | – |
| O=C(CSc1nc(SCC(=O)NCc2ccccc2)n(-c2ccccc2)n1)NCc1ccccc1 | active: 9.28 µM | – |
| CC1(C)CC(=O)C=C(Nc2ccc(Cl)cc2)C1 | inconclusive: 0.928 µM [inhibitor, full curve, poor fit] | – |

Retrieved one by one from above:

| SMILES | Potency | activity change, negative = inhibition |
| --- | --- | --- |
| CC(=O)c1ccc(NC(=O)N2C3CCC2CC(O)(c2cccnc2)C3)cc1 (configuration not stated) | inconclusive: 18.5 µM [inhibitor, single point] | – |
| Cn1nc(C(=O)NCc2ccc(F)cc2)cc1C(=O)NCc1ccc(F)cc1 | inconclusive: 18.5 µM [inhibitor, single point] | – |
| Cc1ccc(C(C)C)c(OCC(=O)NN=C2CCCCCCC2)c1 | inconclusive: 18.5 µM [inhibitor, single point] | – |
| O=S(=O)(c1ccccc1)c1nc(-c2ccc(Cl)cc2)oc1NCCCN1CCOCC1 | inconclusive: 7.38 µM [inhibitor, partial curve] | – |
| CC(C)(C)NS(=O)(=O)c1ccc(NC(=O)NC2CCCCC2)cc1 | inconclusive: 2.33 µM [inhibitor, partial curve, poor fit] | – |
| Cc1cc(C)c(C(=O)CN2C(=O)NC3(CCC(C)CC3)C2=O)cc1C (configuration not stated) | – | inactive: 26.5% |
| COc1ccccc1NC(=O)COC(=O)c1ccc(N2CCCC2=O)cc1 | – | inactive: 10.9% |
